# Assay results reported in PubChem BioAssay AID540276 (National Center for Advancing Translational Sciences (NCATS), 2011).
# “And” between values parts separate entries of the source, which are not always exact repeats. Equal entries are not always repeated. Out of some 300,000 compounds screened, about 5,400 (1.8%) were called active. The shares of active, inactive and inconclusive entries below differ from those in the screen. Calls come from the whole dose curve; tested in HEK293 cells. Potencies of inconclusive entries are doubtful fits and often do not repeat.
# Assay: qHTS for inhibitors of binding or entry into cells for Marburg Virus
# Settings: Marburg virus pseudotyped entry inhibition, cell reporter; activity change, negative = inhibition: at 37.8 µM (top of the series) unless noted
# % is set by controls: 0 for no effect and ±100 for the full control effect; potency is the fitted concentration of half-maximal effect.
SMILES,"activity change, negative = inhibition",Potency
Cc1ccc(C(=O)NC(NC(=O)c2ccc(C)cc2)c2cccc([N+](=O)[O-])c2)cc1,inactive: -23.5%,–
Cn1c(Nc2cccc(Cl)c2)nc2ccccc21,–,"inconclusive: 35.5 µM [inhibitor, single point]"
C/C(=N/NC(=O)c1sc(NS(=O)(=O)c2ccccc2)nc1C)c1ccc(F)cc1,–,"inconclusive: 0.562 µM [activator, single point]"
CSc1nc(NC(C)(C)C)nc(Oc2ccc(=O)n(C)n2)n1,–,"inconclusive: 4.61 µM [inhibitor, single point]"
NC(=O)c1ccccc1NC(=O)/C=C/c1ccc(Cl)cc1,–,"inconclusive: 8.2 µM [inhibitor, partial curve, poor fit]"
Cc1ccc(COc2ccc(/C=N/NC(=O)c3ccc(CN4CCOCC4)cc3)cc2)cc1,–,"inconclusive: 2.82 µM [inhibitor, partial curve, poor fit]"
Cc1cnc(C(=O)NC2CC(C)(C)Cc3c2cnn3-c2ccccc2)cn1 (centres undefined),–,"inconclusive: 35.5 µM [inhibitor, single point]"
CCN1C(N(C)CCc2ccc(Br)cc2)=NC(c2ccccc2)C(C(=O)OC)=C1C (centres undefined),–,"inconclusive: 3.35 µM [inhibitor, single point]"
CCOC(=O)N1CCN(C(=O)Nc2ccc3nc(C)c(C)nc3c2)CC1,inactive: 10.2%,–
COC(=O)c1cc(Nc2cc(C)nc3ncnn23)cc(C(=O)OC)c1,inactive: 17.7%,–
O=C(Nc1cc(-c2ccccc2)cs1)c1ccco1,–,"inconclusive: 3.55 µM [activator, partial curve, poor fit]"
Cc1cc(C)n2nc(C(=O)Nc3ccn(Cc4ccccc4C)n3)cc2n1,–,"inconclusive: 5.01 µM [activator, single point]"
COc1ccc(C2c3c(-c4ccccc4O)n[nH]c3C(=O)N2Cc2ccco2)cc1 (centres undefined),–,inactive
CC(=O)c1cccc(CN2CCCCC2C(=O)Nc2ccc(Oc3ccccc3)nc2)c1 (centres undefined),–,"inconclusive: 6.31 µM [inhibitor, single point]"
CCOC(=O)C1=C(CN2CCN(c3ccccc3)CC2)NC(=O)NC1c1ccc(C)cc1 (centres undefined),inactive: 16.5% [at 46.1 µM],–
Cc1ccc(S(=O)(=O)N2CCCCC2)cc1NC(=O)Cn1cnc2c1c(=O)n(C)c(=O)n2C,–,"inconclusive: 6.31 µM [inhibitor, full curve]"
NS(=O)(=O)c1ccc(NC(=O)/C(=C/c2ccncc2)NC(=O)c2ccccc2)cc1,–,"inconclusive: 35.5 µM [activator, single point]"
Cc1sc2ncn(CC(=O)Nc3cccc(C(F)(F)F)c3)c(=O)c2c1S(=O)(=O)N1CCC(C)CC1,inactive: -5.22% [at 46.1 µM],–
COC(=O)C1=C(C(=O)OC)[C@@H]2N(Cc3ccccc3)c3ccccc3[C@@]23C[C@@H](C(=O)OC)N(C(=O)Nc2ccccc2F)C3=N1,inactive: -13% [at 14.2 µM],–
Cc1ccsc1C(=O)N1CCN(S(=O)(=O)c2cccs2)CC1,inactive: 17.2%,–
Cc1ccc2nc(CNC(=O)C3CCC(=O)N(Cc4ccccc4F)C3)cn2c1 (centres undefined),–,"inconclusive: 10 µM [activator, partial curve]"
COc1ccc(N2C(=O)C(CC(=O)Nc3ccccc3)N(Cc3ccc4c(c3)OCO4)C2=O)cc1 (centres undefined),–,"inconclusive: 32.6 µM [inhibitor, partial curve, poor fit]"
CCC(=O)Nc1ccc(NC(=O)c2ccc3c(c2)OCO3)cc1,–,"inconclusive: 11.2 µM [activator, partial curve, poor fit]"

SMILES,"activity change, negative = inhibition",Potency
COc1ccccc1N1CCN(CCCCN2C(=O)C3CCCCN3C2=O)CC1 (centres undefined),inactive: -3.17%,–
COCCN1C(=O)N[C@@H](c2cccc(C(F)(F)F)c2)C(C(C)=O)=C1C,–,inactive
COc1cccc(CN2CCCC(C(=O)c3ccc4c(c3)OCO4)C2)c1OC (centres undefined),–,active: 11.2 µM
CCCC=Cc1ccc(CN2C(C(C)C)C(=O)N(Cc3cn(CCOCOC)nn3)CCS2(=O)=O)cc1 (centres undefined),–,"inconclusive: 7.05 µM [inhibitor, full curve]"
O=C(/C=C/c1cn(CC(O)CN2CCCCCC2)c2ccccc12)c1ccccc1 (centres undefined),–,"inconclusive: 11.2 µM [inhibitor, partial curve, poor fit]"
COc1cc(/C=C/c2nc(C#N)c(NC3CCCCC3)o2)cc(OC)c1OC,–,"inconclusive: 28.2 µM [inhibitor, single point]"
Cn1cc(CN2CCC(n3nccc3NC(=O)C3CCCC3)CC2)cn1,–,"inconclusive: 35.5 µM [inhibitor, single point]"
O=C(CCc1ccc(S(=O)(=O)N2CCOCC2)cc1)Nc1nccs1,inactive: 0.709%,–
CCCOc1ccc(C(=O)Nc2ccc(N(C)C)cc2)cc1,inactive: -18.7%,–
CC(=O)N/N=C(\C)CC(=O)Nc1ccc2c(c1)OCCO2,inactive: -2.17% [at 46.1 µM],–
O=C1C2C3C=CC(C4CC34)C2C(=O)N1Cc1ccco1 (centres undefined),inactive: -1.54%,–
Nc1c(C(=O)OC2CCCCC2)c2nc3ccccc3nc2n1CC1CCCO1 (centres undefined),–,"inconclusive: 23.1 µM [inhibitor, partial curve, poor fit]"
O=C(NN1C(=O)C2C(c3ccccc3)C=CC(c3ccccc3)C2C1=O)c1ccccc1 (centres undefined),–,"inconclusive: 5.62 µM [activator, single point]"
CS(=O)(=O)N(CC(=O)N1CCN(c2ccccc2)CC1)c1cc(C(F)(F)F)ccc1Cl,–,inactive
C[C@H](N)Cc1cnc[nH]1,–,"inconclusive: 0.158 µM [inhibitor, full curve, poor fit]"
COc1ccccc1NC(=O)CSc1nc2c(oc3ccccc32)c(=O)n1-c1ccc(C)cc1,–,"inconclusive: 20 µM [inhibitor, partial curve, poor fit]"
CC(C)(C)c1ccc(-c2nc(C=O)c3ccccn23)cc1,–,"inconclusive: 7.08 µM [inhibitor, partial curve, poor fit]"
COc1ccccc1N1C(=O)CC(Nc2ccc(N3CCOCC3)cc2)C1=O (centres undefined),inactive: -7.35% [at 46.1 µM],–
CC(=O)Nc1ccc(C(=O)OCC(=O)NC(=O)NC(C)(C)C)cc1,inactive: 3.13%,–
COc1ccc(NC(=S)N2CCN(C(=O)c3ccco3)CC2)cc1,inactive: -1.4% [at 46.1 µM],–
Cc1ccc(S(=O)(=O)N/N=C(\c2ccccc2)c2cccnc2)cc1,–,"inconclusive: 5.62 µM [activator, single point]"
COc1ccc(CN(C)C(=O)c2cc(-c3ccc(C)cc3C)nc3ccccc23)c(OC)c1OC,–,"inconclusive: 4.47 µM [inhibitor, partial curve, poor fit]"
CC(C)CC1NC(=O)N(CC(=O)Nc2cc([N+](=O)[O-])ccc2F)C1=O (centres undefined),inactive: 4.08%,–

SMILES,"activity change, negative = inhibition",Potency
NC(=O)COC(=O)CCCSc1nc2ccccc2s1,inactive: -20.2%,–
Cc1cc(Br)ccc1NC(=O)c1cc2c(s1)-c1ccccc1SC2,–,"inconclusive: 2.51 µM [activator, full curve]"
O=C(N/N=C/c1cccc(NC(=O)c2ccc(Cl)cc2)c1)c1cccc(O)c1,–,"inconclusive: 35.5 µM [inhibitor, single point]"
CC(C)Oc1ccc(C2c3c(oc4ccccc4c3=O)C(=O)N2CCCN2CCOCC2)cc1 (centres undefined),inactive: -4.31%,–
CC(Oc1cc2oc(=O)c3c(c2cc1Cl)CCCC3)C(=O)NCc1cccnc1 (centres undefined),inactive: -1.33% [at 46.1 µM],–
Cc1ccc(C(=O)CCC(=O)NCc2ccc(Cl)cc2)cc1,–,"inconclusive: 6.31 µM [inhibitor, single point]"
Cc1[nH]nc(N=CC2=C(O)CC(c3ccco3)CC2=O)c1-c1ccccc1 (centres undefined),–,"inactive and inconclusive: 35.5 µM [activator, partial curve, poor fit]"
O=C(O)c1ccc(N2C(=O)CC(N3CCC(c4nc5ccccc5[nH]4)CC3)C2=O)cc1 (centres undefined),inactive: 2.89% [at 46.1 µM],–
COc1cccc(NC(=O)c2cccc(C(=O)Nc3cccc(OC)c3)c2)c1,inactive: 2.8%,–
O=C(CCNC(=O)c1ccccc1Cl)Nc1nnc(C2CC2)s1,–,"inconclusive: 35.5 µM [activator, single point]"
CC1(C)CC(=O)C(N=Nc2c(Cl)cc(Cl)cc2Cl)=C(O)C1,–,"inconclusive: 14.1 µM [activator, single point]"
CC(C)n1cnc2cc(NCc3ccco3)ccc21,–,"inconclusive: 3.26 µM [activator, single point]"
Cc1ccccc1NC(=O)/C(C#N)=C/c1ccsc1,–,"inconclusive: 14.1 µM [activator, single point]"
O=C(COc1cccc(NC(=O)c2ccccc2)c1)c1ccccc1,–,"inconclusive: 10.3 µM [inhibitor, partial curve, poor fit]"
CO/S(=N\S(=O)(=O)c1ccc(Cl)cc1)c1ccc([N+](=O)[O-])cc1 (centres undefined),inactive: 20.5%,–
Cc1ccc(C)c(S(=O)(=O)N2CCCCC2CCNC(=O)C(=O)NCc2ccco2)c1 (centres undefined),–,"inconclusive: 35.5 µM [inhibitor, single point]"
CSc1ccc(CNC(=O)CCn2ccc3cc(S(=O)(=O)N4CCCC4)ccc32)cc1,–,"inconclusive: 17.8 µM [inhibitor, partial curve, poor fit]"
Cc1cccc(C)c1N(CC(=O)N1CCOCC1)S(C)(=O)=O,–,"inconclusive: 1.26 µM [inhibitor, single point]"
CCOc1ccccc1NC1=C(OC)C(=O)C(Nc2ccccc2OCC)=C(OC)C1=O,–,"inconclusive: 1.58 µM [activator, partial curve, poor fit]"
Cc1nnc(N/N=C/c2c(Cl)cccc2Cl)n1N,–,"inconclusive: 5.62 µM [inhibitor, single point]"
O=C(CNC(=O)c1cccc(Br)c1)N/N=C/c1ccc2c(c1)OCO2,inactive: 21.8% [at 46.1 µM],–
COc1cccc(-c2nc3c(c(=O)[nH]c(=O)n3Cc3ccccc3)n2CCO)c1OC(F)F,inactive: -24.9% [at 46.1 µM],–
COC(=O)c1cc2occc2n1Cc1nc(-c2ccccc2Cl)oc1C,inactive: 3.78%,–

# Taken from the results shown for reference:
SMILES,"activity change, negative = inhibition",Potency
O=C(N/N=C/c1cccc(NC(=O)c2ccc(Cl)cc2)c1)c1cccc(O)c1,–,"inconclusive: 35.5 µM [inhibitor, single point]"
CC(C)Oc1ccc(C2c3c(oc4ccccc4c3=O)C(=O)N2CCCN2CCOCC2)cc1 (centres undefined),inactive: -4.31%,–
CC(Oc1cc2oc(=O)c3c(c2cc1Cl)CCCC3)C(=O)NCc1cccnc1 (centres undefined),inactive: -1.33% [at 46.1 µM],–
Cc1ccc(C(=O)CCC(=O)NCc2ccc(Cl)cc2)cc1,–,"inconclusive: 6.31 µM [inhibitor, single point]"
Cc1[nH]nc(N=CC2=C(O)CC(c3ccco3)CC2=O)c1-c1ccccc1 (centres undefined),–,"inactive and inconclusive: 35.5 µM [activator, partial curve, poor fit]"
O=C(O)c1ccc(N2C(=O)CC(N3CCC(c4nc5ccccc5[nH]4)CC3)C2=O)cc1 (centres undefined),inactive: 2.89% [at 46.1 µM],–
COc1cccc(NC(=O)c2cccc(C(=O)Nc3cccc(OC)c3)c2)c1,inactive: 2.8%,–
O=C(CCNC(=O)c1ccccc1Cl)Nc1nnc(C2CC2)s1,–,"inconclusive: 35.5 µM [activator, single point]"
CC1(C)CC(=O)C(N=Nc2c(Cl)cc(Cl)cc2Cl)=C(O)C1,–,"inconclusive: 14.1 µM [activator, single point]"
CC(C)n1cnc2cc(NCc3ccco3)ccc21,–,"inconclusive: 3.26 µM [activator, single point]"
Cc1ccccc1NC(=O)/C(C#N)=C/c1ccsc1,–,"inconclusive: 14.1 µM [activator, single point]"
O=C(COc1cccc(NC(=O)c2ccccc2)c1)c1ccccc1,–,"inconclusive: 10.3 µM [inhibitor, partial curve, poor fit]"
CO/S(=N\S(=O)(=O)c1ccc(Cl)cc1)c1ccc([N+](=O)[O-])cc1 (centres undefined),inactive: 20.5%,–
Cc1ccc(C)c(S(=O)(=O)N2CCCCC2CCNC(=O)C(=O)NCc2ccco2)c1 (centres undefined),–,"inconclusive: 35.5 µM [inhibitor, single point]"
CSc1ccc(CNC(=O)CCn2ccc3cc(S(=O)(=O)N4CCCC4)ccc32)cc1,–,"inconclusive: 17.8 µM [inhibitor, partial curve, poor fit]"
Cc1cccc(C)c1N(CC(=O)N1CCOCC1)S(C)(=O)=O,–,"inconclusive: 1.26 µM [inhibitor, single point]"
CCOc1ccccc1NC1=C(OC)C(=O)C(Nc2ccccc2OCC)=C(OC)C1=O,–,"inconclusive: 1.58 µM [activator, partial curve, poor fit]"
Cc1nnc(N/N=C/c2c(Cl)cccc2Cl)n1N,–,"inconclusive: 5.62 µM [inhibitor, single point]"
O=C(CNC(=O)c1cccc(Br)c1)N/N=C/c1ccc2c(c1)OCO2,inactive: 21.8% [at 46.1 µM],–
COc1cccc(-c2nc3c(c(=O)[nH]c(=O)n3Cc3ccccc3)n2CCO)c1OC(F)F,inactive: -24.9% [at 46.1 µM],–
COC(=O)c1cc2occc2n1Cc1nc(-c2ccccc2Cl)oc1C,inactive: 3.78%,–
